Measured data: PubChem BioAssay AID1259254 (NCATS, 2017)
Shown is one part, drawn at random, of about 59,000 deposited reagents. Of all reagents, about 1,550 (2.6%) got an active call. 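G2 share is only a proxy for re-replication; each gene was hit by three separate siRNAs, and active genes were retested.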 Raw values vary from plate to plate and are shown uncorrected. Unmarked entries are inactive. Reagents against one gene are numbered here. Not stated in the record: the amount of reagent.

- Purpose: 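Genome-wide screen for genes that prevent DNA re-replication in cancer cells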 (primary screen)
- Cell system: human HCT116 colorectal cancer cells
- Reagents: single siRNA against human genes
- Duration: 3 days
- Measurement: 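Nuclei stained with Hoechst and imaged; cell-cycle phase assigned by DNA content; G2 share scaled per plate, non-targeting siRNA 0%, GMNN siRNA 100%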
- Scale: G2 robust z-score and G2 cells, % of GMNN control: higher = more G2 cells, more excess DNA replication; raw share of cells in G2: higher = larger share of cells with G2 DNA content
- Hit rule: 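An siRNA counts as active if its G2 robust z-score lies at least 5 MADs above the screen median; here such calls match roughly 38% of GMNN control or more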

gene	reagent no.	G2 robust z-score	G2 cells, % of GMNN control	raw share of cells in G2 (%)
FBXO46 (F-box protein 46)	1	3.83	29.9	15.7
FBXO46 (F-box protein 46)	2	0.198	4.36	5.83
FBXO46 (F-box protein 46)	3	-0.184	1.67	3.88
NFIA (nuclear factor I A)	1	-0.547	-0.88	2.9
NFIA (nuclear factor I A)	2	-1.29	-6.14	2.99
NFIA (nuclear factor I A)	3	1.57	14	11
ATPSCKMT (ATP synthase c subunit lysine N-methyltransferase)	1	0.0339	3.21	3.74
ATPSCKMT (ATP synthase c subunit lysine N-methyltransferase)	2	-0.901	-3.37	2.9
ATPSCKMT (ATP synthase c subunit lysine N-methyltransferase)	3	1.13	10.9	6.56
SLC25A40	1	-0.486	-0.451	4.28
SLC25A40	2	-0.98	-3.93	2.7
SLC25A40	3	-0.0797	2.41	7.48
CCNG2 (cyclin G2)	1	2.11	17.8	11.3
CCNG2 (cyclin G2)	2	0.662	7.63	7.78
CCNG2 (cyclin G2)	3	3.39	26.8	13.3
XPA (XPA, DNA damage recognition and repair factor)	1	-0.296	0.885	4.59
XPA (XPA, DNA damage recognition and repair factor)	2	0.23	4.59	5.99
XPA (XPA, DNA damage recognition and repair factor)	3	-0.64	-1.54	4.95
FARP2 (FERM, ARH/RhoGEF and pleckstrin domain protein 2)	1	0.492	6.43	7.36
FARP2 (FERM, ARH/RhoGEF and pleckstrin domain protein 2)	2	1.91	16.4	11.4
FARP2 (FERM, ARH/RhoGEF and pleckstrin domain protein 2)	3	-0.401	0.147	3.25
UEVLD (UEV and lactate/malate dehyrogenase domains)	1	-1.4	-6.9	1.97
UEVLD (UEV and lactate/malate dehyrogenase domains)	2	-0.709	-2.02	3.49
UEVLD (UEV and lactate/malate dehyrogenase domains)	3	-1.44	-7.15	3.3
PDCD10 (programmed cell death 10)	1	-1.2	-5.48	2.84
PDCD10 (programmed cell death 10)	2	0.65	7.54	7.25
PDCD10 (programmed cell death 10)	3	-0.394	0.198	3.25
FRYL (FRY like transcription coactivator)	1	1.61	14.3	8.84
FRYL (FRY like transcription coactivator)	2	-0.277	1.02	3.44
FRYL (FRY like transcription coactivator)	3	-0.471	-0.345	3.16
FRYL (FRY like transcription coactivator)	4	-0.946	-3.69	2.14
FRYL (FRY like transcription coactivator)	5	-0.0383	2.7	3.82
FRYL (FRY like transcription coactivator)	6	-0.939	-3.64	2.22
CEP164 (centrosomal protein 164)	1	-0.648	-1.59	4.36
CEP164 (centrosomal protein 164)	2	-0.476	-0.381	3.98
CEP164 (centrosomal protein 164)	3	0.829	8.8	6.47
TMEM198 (transmembrane protein 198)	1	-0.452	-0.214	4.09
TMEM198 (transmembrane protein 198)	2	0.436	6.04	5.02
TMEM198 (transmembrane protein 198)	3	0.538	6.75	5.03
CCDC191 (coiled-coil domain containing 191)	1	-0.463	-0.292	4.23
CCDC191 (coiled-coil domain containing 191)	2	-0.956	-3.76	2.66
CCDC191 (coiled-coil domain containing 191)	3	-0.281	0.99	3.34
DCP1B (decapping mRNA 1B)	1	-1.2	-5.5	1.63
DCP1B (decapping mRNA 1B)	2	-0.134	2.02	3.64
DCP1B (decapping mRNA 1B)	3	-0.167	1.79	3.33
SELP (selectin P)	1	3.22	25.6	14.3
SELP (selectin P)	2	-0.771	-2.46	3.7
SELP (selectin P)	3	1.42	13	8.25
C10orf53 (chromosome 10 open reading frame 53)	1	0.402	5.8	5.75
C10orf53 (chromosome 10 open reading frame 53)	2	-0.825	-2.83	1.95
C10orf53 (chromosome 10 open reading frame 53)	3	-0.0553	2.58	4.05
NKIRAS2 (NFKB inhibitor interacting Ras like 2)	1	-0.849	-3.01	4.8
NKIRAS2 (NFKB inhibitor interacting Ras like 2)	2	-0.934	-3.6	2.81
NKIRAS2 (NFKB inhibitor interacting Ras like 2)	3	0.695	7.86	6.8
CDC42EP1 (CDC42 effector protein 1)	1	0.546	6.81	6.95
CDC42EP1 (CDC42 effector protein 1)	2	-1.01	-4.12	1.63
CDC42EP1 (CDC42 effector protein 1)	3	0.619	7.32	7.85
ZCCHC24 (zinc finger CCHC-type containing 24)	1	1.28	12	7.91
ZCCHC24 (zinc finger CCHC-type containing 24)	2	-0.484	-0.438	2.98
ZCCHC24 (zinc finger CCHC-type containing 24)	3	0.547	6.82	5.37
CAPRIN1 (cell cycle associated protein 1)	1	0.202	4.39	7.21
CAPRIN1 (cell cycle associated protein 1)	2	-0.52	-0.688	5.09
CAPRIN1 (cell cycle associated protein 1)	3	-0.623	-1.42	2.73
REN (renin)	1	4.35	33.6	17.3
REN (renin)	2	1.89	16.2	10.7
REN (renin)	3	-0.772	-2.46	2.99
POLG (DNA polymerase gamma, catalytic subunit)	1	-0.867	-3.14	3.1
POLG (DNA polymerase gamma, catalytic subunit)	2	-0.77	-2.45	4.13
POLG (DNA polymerase gamma, catalytic subunit)	3	0.766	8.36	7.87

Entries above whose target name starts with D or d (3):
gene	reagent no.	G2 robust z-score	G2 cells, % of GMNN control	raw share of cells in G2 (%)
DCP1B (decapping mRNA 1B)	1	-1.2	-5.5	1.63
DCP1B (decapping mRNA 1B)	2	-0.134	2.02	3.64
DCP1B (decapping mRNA 1B)	3	-0.167	1.79	3.33
